The other results are listed elsewhere or left out.
B1: il2ra_site1_3nfp_normal_mot_HHH_b2_08102_af2_000000255_0001_38_50_H_._HHH_b1_04523_0001_0000100003_0000001_0_af2pred_0001_af2pred_swapped (protein)
chain: SSSSSEAKEFQELVKELRKLIKEGDEEEARELLERLREIVERRNSRIAKELLEILEKLVESSSSS
B2: il2ra_site1_2b5i_normal_mot_HHH_b1_02271_000000068_0001_1_16_H_._HHH_b2_07355_af2_0001_0000100001_0000001_0_af2pred_0001_af2pred (protein)
chain: SSSSSSRLELVEELDRLFKLLAEEGDEETLEEVLELFREASRKKDPRLLEEAIELAKRVLSSSSS
B3: il2ra_site2_3nfp_sap_13_mot_HHH_b1_08005_000000161_0001_1_17_H_._c09b00986db088d0fdb98887e7bccc3e_0001_af2_0001_0000100007_0000001_0_0001 (protein)
chain: SSSSSDVEELLEEVKELIEEGDLYQAAQVLVEASELAAERQDPELARIVLELFLELQKEGSSSSS
B4: il2ra_site2_2erj_sap_16_mot_HHH_b1_04407_af2_000000039_0001_42_56_H_._HHH_eva_0415_0001_0000100006_0000001_0_0001 (protein)
chain: SSSSDSLLHELYRLANELMRLITEGDEEEAKEILEEAEEVAERLNSENAKEFLKRLKKQLSSSSS
B5: il2ra_site2_2erj_sap_18_mot_HHH_b1_07806_000000211_0001_42_56_H_._HHH_b2_00355_0001_0000100005_0000001_0_0001_af2pred_0001_af2pred (protein)
chain: SSSSSDREEAEERIEELLEEAKHVPDQKEAMKLLQEAAELADEVNDPELVELVDEVLRRLSSSSS
B6: il2ra_site1_2b5i_normal_mot_f5ff40796168375b462bec8614a1db4a_0001_1_000000138_0001_53_65_H_._HHH_b2_02099_0001_0000400009_0000001_0_af2pred_dldesign_0_af2pred (protein)
chain: SSSSSNEDYEELVKELLEKAEKIEDPEERRRVLLLARRVAKKGKNPELVAEVEARLAALESSSSS
B7: il2ra_site1_1z92_normal_mot_HHH_b1_03515_000000289_0001_1_19_H_._HHH_b1_03515_af2_0001_0000200033_0000001_0_af2pred_0001_af2pred_1_swapped (protein)
chain: SSSNEERLRRNAEIIVKIAVEIAQLSEEQEELLRELAEELLERGVSWEEIAKRLDELAAQLGSSS
B8: il2ra_site2_3nfp_sap_20_mot_HHH_b1_03376_000000004_0001_41_55_H_._HHH_b1_03616_0001_0001400121_0000001_0_0001 (protein)
chain: SSSSDEELEEALRELEEAVEEGDKDAVARLLELVLRLAAELNDEEAAEIVIEIYAQMKKRRSSSS
B9: il2ra_site2_2erj_sap_26_mot_678ce523d3521e26f84bf18760a59296_0001_000000113_0001_1_12_H_._f3ed0478f97ec8155d1bdca7070205eb_0001_0001_0000100004_0000001_0_0001 (protein)
chain: SSSDREEVEELIEEVEELIRQGDYRRASELLAEAMELALRAQDAELLLRLYELLREIFERNSSSS
B10: il2ra_site1_2b5i_normal_mot_HHH_b2_04910_000000118_0001_1_19_H_._HHH_b1_06660_0001_0000100005_0000001_0_af2pred_dldesign_0_af2pred (protein)
chain: SSSSSKEVEELFKKAEELYKEGKYEEALKVLKEALELAKKEKQNLAVKFIESALKQIELLLSSSS
B11: il2ra_site1_2b5i_normal_mot_HHH_b1_03515_af2_000000188_0001_1_19_H_._HHH_b1_05649_0002_0000200038_0000001_0_af2pred_dldesign_0_af2pred (protein)
chain: SSSSSPESIELSDVIEELQEKYGLDEDQYAELRRLAIELHYKGVPLEEIRRRLEERARELGSSSS
B12: il2ra_site1_1z92_sap_21_mot_HHH_b1_02849_000000017_0001_22_39_H_._HHH_b2_00342_af2_0001_0000300060_0000001_0_0001 (protein)
chain: SSSSDERLERAAEVVVRILVELANLSEEDEERLQELAEELVERGVDSLELIKILDELAVRLSSSS
B13: il2ra_site1_3nfp_sap_13_mot_HHH_b2_01582_af2_000000000_0001_1_16_H_._HHH_b2_07153_0001_0000500025_0000001_0_0001_af2pred_0001_af2pred (protein)
chain: SSSSSALEVLEERFKEALERGDEHQARVILELLKEAAELHNDEELEKRVRELEEELRELFSSSSS
B14: il2ra_site1_3nfp_sap_13_mot_fe74bfd50694bb190af954a823403fd2_0001_af2_000000013_0001_1_15_H_._HHH_b1_00410_0001_0000100002_0000001_0_0001_af2pred_0001_af2pred_s … (protein)
chain: SSSSSDEREEIRKLLEEADRLYKNGDPEEARRVLEEALELAKEANNPAMRKFLEQSLRIASSSSS
B15: il2ra_site2_2erj_normal_mot_HHH_b1_04462_000000080_0001_40_56_H_._HHH_b1_01567_0001_0000500048_0000001_0 (protein)
chain: SSSDTEEDSVEMAERDFRRLVEEGDPERARSLARLAERFAERSGDEEVLEKIRELLEELENSSSS
B16: il2ra_site2_3nfp_sap_15_mot_HHH_b1_03605_000000160_0001_1_19_H_._78f3cea537ddf5c4686abc92c323a9bd_0001_af2_0001_0001300041_0000001_0_0001 (protein)
chain: SSSSSEEVKELIEEVEELLKKGDDREAAQVLLRASELALEDGDEELLRRLLELYKEIAERRSSSS
B17: il2ra_site2_3nfp_normal_mot_49a7c9051cacde34b31d84fabeb7f3ea_0001_af2_000000030_0001_39_52_H_._HHH_b2_06514_af2_0001_0000200005_0000001_0 (protein)
chain: SSSSDEEEEELEELQKLLKRLKEEGDRFELLRVLFRAAKLAAKLGDREAVRRELELYEELASSSS
B18: il2ra_site1_3nfp_normal_mot_HHH_b1_03420_af2_000000029_0001_41_57_H_._HHH_b2_05734_af2_0001_0000300011_0000001_0 (protein)
chain: SSSSDLEKASKIAEEIIKLLSHGDPEEAERLLEELEELAKELGSELAKWLVEELEEAIKLRSSSS
B19: il2ra_site2_2erj_sap_29_mot_dcd9809507f71d420582ead1f1e1bbb3_0001_000000226_0001_37_50_H_._HHH_b1_02896_af2_0001_0000500038_0000001_0_0001 (protein)
chain: SSSSSSLHELYELANRLMHALSNGDEELLEELLEELEELAKELQSDTAREIVENIRRRLSSSSSS

target: il2ra, P01589; experiment: yeast display titration

Apparent Kd, inactive:
B1 no binding seen
B2 no binding seen
B3 no binding seen
B4 no binding seen
B5 no binding seen
B6 no binding seen
B7 no binding seen
B8 no binding seen
B9 no binding seen
B10 no binding seen
B11 no binding seen
B12 no binding seen
B13 no binding seen
B14 no binding seen
B15 no binding seen
B16 no binding seen
B17 no binding seen
B18 no binding seen
B19 no binding seen

For convenience, some entries already given:
Apparent Kd, inactive:
B8 no binding seen
B9 no binding seen
B10 no binding seen
B11 no binding seen
